Measurements published in patent publication US8039464B2, “Muscarinic antagonists with PARP and SIR modulating activity as agents for inflammatory diseases” (ProteoSys AG, priority 2004, dated 2011).

Molecular target: T1, SIR-2 (Mus musculus, UniProt Q923E4)
T1 construct: Using a raw extract from murine embryonic stem cells; host or cells: murine embryonic stem cells (raw extract)
T1 sequence (Q923E4 2-737 limits assumed): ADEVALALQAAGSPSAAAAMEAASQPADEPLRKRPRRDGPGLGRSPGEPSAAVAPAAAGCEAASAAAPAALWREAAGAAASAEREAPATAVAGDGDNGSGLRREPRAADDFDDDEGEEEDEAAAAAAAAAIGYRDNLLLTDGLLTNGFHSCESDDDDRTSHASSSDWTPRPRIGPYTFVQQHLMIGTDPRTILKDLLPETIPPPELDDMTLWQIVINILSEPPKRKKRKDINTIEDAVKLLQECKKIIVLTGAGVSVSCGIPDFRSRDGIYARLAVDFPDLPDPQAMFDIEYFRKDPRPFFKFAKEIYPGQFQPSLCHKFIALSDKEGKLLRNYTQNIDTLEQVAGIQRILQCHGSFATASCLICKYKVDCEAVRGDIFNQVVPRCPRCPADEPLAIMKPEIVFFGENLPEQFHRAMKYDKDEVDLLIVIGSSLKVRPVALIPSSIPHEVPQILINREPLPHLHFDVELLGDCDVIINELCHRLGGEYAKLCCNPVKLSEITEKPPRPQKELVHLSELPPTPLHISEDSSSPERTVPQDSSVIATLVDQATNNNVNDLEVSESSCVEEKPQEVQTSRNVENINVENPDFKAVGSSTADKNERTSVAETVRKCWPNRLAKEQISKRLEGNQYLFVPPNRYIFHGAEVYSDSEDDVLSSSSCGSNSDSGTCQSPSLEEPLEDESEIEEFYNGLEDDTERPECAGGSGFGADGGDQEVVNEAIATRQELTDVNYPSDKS
Test: SIR2 activity assay (CycLex SIR2 Assay kit)
Type: biochemical, murine
Details: read-out: IC50 SIR-2 inhibition
Text: For measurements of SIR2 activities, the quantitative test kit for NAD-dependent histone deacetylase activity CycLex® SIR2 Assay kit (Cat# CY-1151) was used according to instructions of manufacturer (CycLex Co., Ltd. 1063-103 Ohara, Tera-Sawaoka Ina, Nagano 396-0002 Japan). All substances tested in the SIR assay were cross-checked for their influence on the lysyl-endopeptidase. For this control an already deacetylated substrate peptide was used in order to measure directly lysyl-endopeptidase activity.
For measurements of SIR2 activities, the quantitative test kit for NAD-dependent histone deacetylase activity CycLex® SIR2 Assay kit (Cat# CY-1151) was used according to instructions of manufacturer (CycLex Co., Ltd. 1063-103 Ohara, Tera-Sawaoka Ina, Nagano 396-0002 Japan).

CN1CCN(CC(=O)N2c3ccccc3C(=O)Nc3cccnc32)CC1 [Pirenzepine, 5,11-dihydro-11[(4-methyl-1-piperazinyl)-acetyl]-6H-pyrido-[2,3-b]-[1,4]benzodiazepine-6-one, reference compound]
IC50: 1000 to 5000 µM
